Where “and” joins values, the source holds several entries; their conditions need not be identical. Identical values can stand only once.
Test system: rat lenses
Assay: Rat lens organ culture exposed to H2O2 with or without L-carnitine
Type: cell-based, Sprague-Dawley rats
Conditions: 500 μM H2O2 ± 300 μM L-carnitine; for Lens weight: 24 h incubation; for Water insoluble protein: % of total proteins; for Water insoluble protein / Acetyl carnitine / Free carnitine / Total carnitine / Glutathione: 24 h; for Acetyl carnitine / Free carnitine / Total carnitine / Glutathione: lens homogenate
Protocol: Four-month-old Sprague-Dawley rats were anesthesized with 5 mg/kg xylazine and 65 mg/kg ketamine, and decapitated. Immediately after, eyes were enucleated, extracted and placed in 2 ml of modified TC-199 medium. Lens integrity was assessed by measuring protein leached into the medium after 30-60 min of culture; damaged lenses were discarded. One lens of each pair was placed in culture medium with no H2O2 and used as a control. […] The controlateral lens of each pair was placed in medium and, after equilibration under 5% CO2 at 37° C., was exposed to 500 μM H2O2 in the absence or presence of 300 μM L-carnitine. After 24 h of incubation, morphological characteristics and changes were recorded, and the lenses were photographed. The incubated lenses were rinsed with saline solution, blotted on filter paper, weighed, and then immediately processed for biochemical analysis. To determine lactate dehydrogenase (LDH) leakage, lenses were incubated individually in each different medium, and the medium was harvested daily and saved for LDH analysis.
Decapsulated lenses were homogenized with disposable pestles and then sonicated in extract buffer (20 mM HEPES, 0.2 mM EDTA, 0.5 mM dithiothreitol, 450 mM NaCl, 25% glycerol, […] leupeptin, 0.5 μg/ml protinin, 0.5 mM phenylmethanesulfonyl fluoride) on ice. Aliquots of the homogenate from each of the incubated lenses were removed for GSH and L-carnitine analysis. The remainder was centrifuged for 25 min at 20,000×g to separate the supernatant from the pellet. The pellet was washed with 1.0 ml buffer and dried under nitrogen. This fraction was designated “water-insoluble fraction”. The supernatant fraction was dialyzed twice against 3 ml of 0.025 mol/l phosphate buffer, pH 7.4 for 48 h and lyophilized. This fraction was designated “water-soluble” fraction. The water-soluble and water-insoluble fractions were delipidated with 3.0 ml chloroform:methanol (2:1) for 16 h under shaking followed by centrifugation at 2,000 g for 5 min.
The water-insoluble proteins were suspended in 0.2 M N-ethylmorpholine acetate (pH 8.1). An aliquot (10%) was used to quantitate the amount of total protein. Samples were digested by the sequential addition of proteolytic enzymes (collagenase, pronase, aminopeptidase and carboxypeptidase A, carboxypeptidase B and carboxypeptidase y), directly to the reaction mixture at 37° C. in the presence of 0.02% sodium azide. After enzymatic digestion, the free N-(γ-glutamyl)lysine isopeptide cross-link was resolved by HPLC and quantitated by amino acid analysis (Hohl, D., et al (1991), J Biol Chem. 266, 6626-6636). In a related set of experiments, the isopeptide content of lenses was determined without prior extraction.
After a 24-h incubation with or without H2O2 in the presence or absence of L-carnitine, lenses were submitted to standard procedures for histologic analysis. For optical microscopy, lenses were removed from culture medium, immersed in fixative (neutral buffered formalin), dehydrated in ethanol, cleared in xylene, and embedded in paraffin wax for sectioning. Five micrometer sections were prepared and stained with hematoxylin and eosin. For scansion electron microscopy the lenses were fixed by immersion, for at least 24 h at room temperature, in a solution of 2.5% glutaraldehyde and 6% sucrose, buffered to pH 7.2 with 50 mM sodium cacodylate. Samples were dehydrated through a graded series of ethanol, critical point-dried using CO2, mounted on aluminium stubs, sputter-coated with gold, and examined with a Leica Stereoscan 440 microscope at a 3-7 kV acceleration voltage.
For transmission electron microscopy, the lenses were fixed as described above for the scansion electron microscopy procedure, postfixed in OsO4 buffered with 150 mM sodium-potassium phosphate (pH 7.4), embedded, sectioned, and stained for electron microscopy. They were examined at a JEOL 100B electron microscope.

| SMILES | Lens weight | Water insoluble protein | Acetyl carnitine [nmoles/g w-w] | Free carnitine [nmoles/g w-w] | Total carnitine | Lens weight (listed as H2O2 + L-CAR) [mg] | Water insoluble protein (listed as H2O2 + L-CAR) [%] | Glutathione | Glutathione (listed as H2O2 + L-CAR) [μmoles/g w-w] | Total carnitine (listed as H2O2 + L-CAR) [nmoles/g w-w] |
| --- | --- | --- | --- | --- | --- | --- | --- | --- | --- | --- |
| OO [H2O2, reference compound] | 47 ± 0.2 mg | 41% and 41 ± 1.9 % | 6 ± 1 | 27 ± 2 | 36 ± 3 nmoles/g w-w |  |  |  |  |  |
| C[N+](C)(C)C[C@H](O)CC(=O)[O-] [L-carnitine] | no differences in weight | the same as those observed in control lenses | 37 ± 2 | 151 ± 2 | maintained the carnitine concentration almost at the level found in control lenses | 27 ± 0.9 | 5 ± 2.0 | did not prevent the loss of GSH | 2.71 ± 0.73 | 189 ± 2 |

Source: patent publication US7833977B2, “Use of L-Carnitine as stabilizing agent of proteins” (Sigma-Tau Industrie Farmaceutiche Riunite S.p.A., priority 2000, dated 2010)
